PubChem BioAssay AID1053208 – Peter MacCallum Cancer Centre | 2014

Test: 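Genes whose silencing cuts survival of bone tumour cells only with doxorubicin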 (primary screen)
System: mouse osteosarcoma cells, early-passage culture from an engineered mouse model of fibroblastic bone tumour
Knock-down reagent: siRNA pool against mouse genes, 40 nM
Timing: about 120 h (48 h before drug, then 72 h with drug)
Treatment: doxorubicin 100 nM for 72 h, roughly 30-40% inhibitory dose
Detection: 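Viability read as ATP luminescence after 72 h of 100 nM doxorubicin or none, duplicate wells averaged, scaled to non-targeting siRNA, then expressed as robust z-scores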
Scale: viability z-score with doxorubicin and doxorubicin viability vs non-targeting: higher = more viable cells under doxorubicin; viability z-score without drug: higher = more viable cells with knock-down alone; z-score of drug to no-drug ratio: higher = less drug sensitisation by knock-down
Active means: 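Called active if knock-down leaves viability unchanged without drug (z within -2 to 2) but lowers it with doxorubicin (z at or under -2)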
Here is a random part of about 17,000 reagents. 788 of them (4.7%) count as active. 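Calls rest on z-score classes alone; an extra cut-off of viability at most 70% of control was not applied to them.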 A number with no mark means an inactive call. No sequences are given here.

Target gene | combined z-score class | viability z-score with doxorubicin | viability z-score without drug | z-score of drug to no-drug ratio | doxorubicin viability vs non-targeting
Haghl | no change with or without drug | 0.9 | -0.17 | 1.24 | 1.02
Exosc1 | no change with or without drug | 1.01 | 1.52 | 0.11 | 1.03
Or9m2 | no change with or without drug | 0.56 | -0.67 | 1.24 | 0.99
Tead1 | no change with or without drug | -0.22 | -0.84 | 0.45 | 0.92
Bnip1 | no change with or without drug | -1.57 | -1.69 | -0.45 | 0.8
Plekhb1 | low cell count with doxorubicin only (active) | -2.02 | -0.17 | -1.91 | 0.76
Tbx5 | no change with or without drug | -0.79 | 0.17 | -0.79 | 0.87
Cfap97 | no change with or without drug | 1.69 | 1.52 | 0.79 | 1.09
Sval2 | no change with or without drug | 1.8 | 0.67 | 1.46 | 1.1
Cited4 | no change with or without drug | -0.22 | 0.17 | -0.22 | 0.92
BC107364 | no change with or without drug | -0.22 | 1.85 | -1.24 | 0.92
Trmt5 | no change with or without drug | 0.45 | 0.51 | 0.22 | 0.98
Or4k77 | no change with or without drug | -1.57 | -1.35 | -0.67 | 0.8
8430403M15RIK | no change with or without drug | 0.45 | 0.17 | 0.45 | 0.98
Kdm3b | no change with or without drug | -0.67 | 0.17 | -0.67 | 0.88
Inpp1 | no change with or without drug | 0 | 0.17 | 0 | 0.94
Capn2 | no change with or without drug | 1.35 | 0.17 | 1.35 | 1.06
Shc2 | no change with or without drug | -0.22 | 0.51 | -0.45 | 0.92
Or5b122 | no change with or without drug | 0.45 | -0.51 | 1.01 | 0.98
Ube2d2a | no change with or without drug | -1.12 | -0.67 | -0.67 | 0.84
Cav3 | no change with or without drug | -0.79 | -0.84 | -0.11 | 0.87
Apoc2 | no change with or without drug | -1.46 | -0.67 | -1.01 | 0.81
Actl7b | low cell count with doxorubicin only (active) | -2.02 | 0.17 | -2.14 | 0.76
Ca12 | no change with or without drug | 1.12 | -0.84 | 2.02 | 1.04
Ube2l3 | no change with or without drug | -0.9 | -0.84 | -0.22 | 0.86
Mcm7 | low cell count without drug only | -1.8 | -2.87 | 0.22 | 0.78
Pdcd11 | no change with or without drug | -0.22 | 0.17 | -0.22 | 0.92
Ints10 | no change with or without drug | 1.01 | 0.51 | 0.79 | 1.03
Ttc39a | no change with or without drug | -1.57 | -0.17 | -1.46 | 0.8

Continued; the last 7 above are carried over.
Target gene | combined z-score class | viability z-score with doxorubicin | viability z-score without drug | z-score of drug to no-drug ratio | doxorubicin viability vs non-targeting
Actl7b | low cell count with doxorubicin only (active) | -2.02 | 0.17 | -2.14 | 0.76
Ca12 | no change with or without drug | 1.12 | -0.84 | 2.02 | 1.04
Ube2l3 | no change with or without drug | -0.9 | -0.84 | -0.22 | 0.86
Mcm7 | low cell count without drug only | -1.8 | -2.87 | 0.22 | 0.78
Pdcd11 | no change with or without drug | -0.22 | 0.17 | -0.22 | 0.92
Ints10 | no change with or without drug | 1.01 | 0.51 | 0.79 | 1.03
Ttc39a | no change with or without drug | -1.57 | -0.17 | -1.46 | 0.8
Rab33b | no change with or without drug | 1.35 | 1.85 | 0.22 | 1.06
Oc90 | no change with or without drug | -0.45 | -1.18 | 0.45 | 0.9
Dynlt1b | no change with or without drug | -1.46 | -0.34 | -1.24 | 0.81
Knop1 | no change with or without drug | -0.9 | 0.51 | -1.12 | 0.86
Or8d2b | no change with or without drug | -0.67 | -0.17 | -0.45 | 0.88
Tmem9 | no change with or without drug | 1.46 | 1.52 | 0.56 | 1.07
Rims3 | no change with or without drug | 1.12 | -0.17 | 1.46 | 1.04
Skic2 | no change with or without drug | 0.22 | 0.34 | 0.11 | 0.96
Cyfip1 | low cell count without drug only | 0.22 | -2.19 | 2.14 | 0.96
Ccdc198 | high cell count without drug only | 1.12 | 3.04 | -0.67 | 1.04
Noxa1 | no change with or without drug | -0.9 | -0.51 | -0.56 | 0.86
Rph3a | no change with or without drug | 0.79 | 1.52 | -0.11 | 1.01
Erap1 | high cell count with and without drug | 5.4 | 2.53 | 3.48 | 1.42
Zfp85os | no change with or without drug | 0.22 | 1.85 | -0.79 | 0.96
Fnbp1l | no change with or without drug | 0.22 | -0.84 | 1.01 | 0.96
Or5p59 | no change with or without drug | -1.69 | -0.17 | -1.57 | 0.79
Pex16 | no change with or without drug | 0.45 | 0.17 | 0.45 | 0.98
Atp6v0a1 | no change with or without drug | 0.56 | -0.67 | 1.24 | 0.99
Edar | no change with or without drug | 0.45 | 0.17 | 0.45 | 0.98
2810407A14Rik | high cell count without drug only | 1.91 | 2.19 | 0.56 | 1.11
Mrps25 | low cell count with and without drug | -2.7 | -2.53 | -1.24 | 0.7
